The text below walks through data of article PMC9663828.

Sequences of proteins named here, by UniProt entry; tags and fusion partners are left off.
UniProt Q9BVG3: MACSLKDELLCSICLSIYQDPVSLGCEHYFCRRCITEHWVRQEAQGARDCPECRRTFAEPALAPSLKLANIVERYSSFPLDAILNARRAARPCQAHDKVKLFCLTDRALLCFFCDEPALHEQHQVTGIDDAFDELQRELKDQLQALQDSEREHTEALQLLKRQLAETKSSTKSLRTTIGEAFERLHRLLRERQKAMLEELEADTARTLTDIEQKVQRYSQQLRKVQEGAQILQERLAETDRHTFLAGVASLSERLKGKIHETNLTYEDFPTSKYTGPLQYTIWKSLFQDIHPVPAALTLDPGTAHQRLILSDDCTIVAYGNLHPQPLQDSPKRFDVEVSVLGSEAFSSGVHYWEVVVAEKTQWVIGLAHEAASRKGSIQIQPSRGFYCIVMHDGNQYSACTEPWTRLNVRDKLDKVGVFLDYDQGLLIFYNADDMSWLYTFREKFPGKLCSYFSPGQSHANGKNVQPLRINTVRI

The target in the assay is HA-DEAR1 (UniProt Q9BVG3). The experiment in a line: co-IP; HEK293T co-transfected with HA-DEAR1 and/or Myc-SNAI2 for 24 h, MG-132 for 2 h before harvest; M-PER lysis; immunoprecipitated with anti-HA (rabbit) overnight at 4 °C, protein A/G agarose, RIPA washes; blotted with anti-Myc (mouse).

No constants are given. Whether binding was seen depends on the method and setting. In cells and extracts the contact can be indirect. Some binding calls cover weakened binding; strength is not graded here. Tags and fused reporters may be left off the sequences shown.

B1: Myc-SNAI2 (protein, UniProt O43623 1-268)
chain: MPRSFLVKKHFNASKKPNYSELDTHTVIISPYLYESYSMPVIPQPEILSSGAYSPITVWTTAAPFHAQLPNGLSPLSGYSSSLGRVSPPPPSDTSSKDHSGSESPISDEEERLQSKLSDPHAIEAEKFQCNLCNKTYSTFSGLAKHKQLHCDAQSRKSFSCKYCDKEYVSLGALKMHIRTHTLPCVCKICGKAFSRPWLLQGHIRTHTGEKPFSCPHCNRAFADRSNLRAHLQTHSDVKKYQCKNCSKTFSRMSLLHKHEESGCCVAH
As to B1, the binding result was “binds”.
